Experimental data: paper PMC10567574, “piRNA processing by a trimeric Schlafen-domain nuclease” (Nature, 2023)
No constants are given. Whether binding was seen depends on the method and setting. In cells and extracts the contact can be indirect. A yes stands for co-enrichment or nearness to the bait. Other partners may have been found. No binding means not detected with the bait. Tags and fused reporters may be left off the sequences shown.

T1: TOFU-2-HA (endogenous TOFU-2 tagged with a human influenza haemagglutinin tag) (C. elegans (endogenous in young adult worms)) (UniProt Q19614)
T1 sequence: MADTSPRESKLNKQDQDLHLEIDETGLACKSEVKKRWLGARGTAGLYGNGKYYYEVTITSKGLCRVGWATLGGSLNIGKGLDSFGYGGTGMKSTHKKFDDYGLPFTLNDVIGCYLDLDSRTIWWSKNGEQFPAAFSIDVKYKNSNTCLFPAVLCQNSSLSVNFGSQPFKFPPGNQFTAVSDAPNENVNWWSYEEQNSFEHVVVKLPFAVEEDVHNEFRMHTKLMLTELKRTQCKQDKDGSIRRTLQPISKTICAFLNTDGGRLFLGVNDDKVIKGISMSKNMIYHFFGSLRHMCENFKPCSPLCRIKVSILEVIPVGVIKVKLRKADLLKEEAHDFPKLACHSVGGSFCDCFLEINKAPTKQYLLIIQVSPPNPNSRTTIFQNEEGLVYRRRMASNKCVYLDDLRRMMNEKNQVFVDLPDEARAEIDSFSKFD

T2: TOFU-2(E216A)-HA (C. elegans (endogenous in young adult worms)) (UniProt Q19614)
T2 sequence: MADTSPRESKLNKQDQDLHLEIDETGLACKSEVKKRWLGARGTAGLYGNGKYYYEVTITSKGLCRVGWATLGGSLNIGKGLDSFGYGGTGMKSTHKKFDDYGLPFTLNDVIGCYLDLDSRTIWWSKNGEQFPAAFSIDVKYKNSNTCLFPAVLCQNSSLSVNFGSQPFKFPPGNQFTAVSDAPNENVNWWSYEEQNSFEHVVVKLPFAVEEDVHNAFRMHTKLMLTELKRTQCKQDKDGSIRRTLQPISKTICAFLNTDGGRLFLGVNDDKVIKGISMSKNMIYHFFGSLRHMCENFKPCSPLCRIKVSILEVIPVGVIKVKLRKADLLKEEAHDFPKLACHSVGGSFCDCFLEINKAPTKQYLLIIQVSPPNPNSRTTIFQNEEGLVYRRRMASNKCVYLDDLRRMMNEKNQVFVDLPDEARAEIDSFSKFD


Tests used:
[1] = target: T1, TOFU-2-HA (endogenous TOFU-2 tagged with a human influenza haemagglutinin tag) (C. elegans (endogenous in young adult worms)); assay: affinity purification with mass spectrometry; anti-HA (12CA5) immunoprecipitation from young adult C. elegans lysate (0.75 mg protein), protein G magnetic beads, 25 mM Tris HCl pH 7.5, 150 mM NaCl, 1.5 mM MgCl2, 4 C; label-free quantification against wild type, quadruplicates
[2] = target: T2, TOFU-2(E216A)-HA (C. elegans (endogenous in young adult worms)); assay: as above

Binder	binding [1]	binding [2]
SLFL-4 (F36H12.2, endogenous) (protein, UniProt O76720 1-352) MIDKIVFEEDEEYDLTQDSFRYGRVTTGASYNLVTGKIPETVLEQVKAKDDENDDVEFEMDHLEDKEAVQKTKTFDELYESQMPKYFEYQSNFSEVNGIWTLLFDQNHYENMSTFELQAAICAALNSKHYMMICVGIDAFNAVTGVEMSAKDRVVFRMALTRAVAGEFQPPLVKVAPKQLTGVSPMKRDISEVTSSIDVLFIPVIGVTDEVENNRFLIVVRVKEISDKVYQISSGRIYNELEGRVVEMSDMNEAFHKLIVEQSISDIQTRRGSMFMLEPEPFLEDSPVIFTGSKEILRENHEIPNILKENSTERSLSQSLLNLLDIQNIGWIFFGTALSCCIYNNAIKPLVK	binds	–
PRG-1 (endogenous) (protein, UniProt P90786 1-824) MASGSGRGRGRGSGSNNSGGKDQKYLGTIQPDLFIRQQGQSKTGSSGQPQKCFANFIPIEMTQSDYSIYQYHVEFEPTVDSKANREKMLRDNNVTDEIGHHFVFDGMILYLKEEWEQNQMIEVQHPIDRSLICIRFKQTNRFLVDDPQTINIFNTIIRRSFDALQLTQLGRNYFNWGDSRAVPDYNMSILPGYETAIRMYEENFMLCVENRFKMVREESMYILFHKELRSCQNNPQRVQEKMNEMYGGTTIITRYNNKLHRYTRLDYSISPLSEFVKDGQSITLKEYFKNQYGIEITVDDQPIIISEGKPKQPGEPPQVSYIVPELCFPTGLTDEMRKDFKMMKEIAKHTRMSPQQRLVESRKLIVDLSKNEKVMECFKYWGISLGQDLANVQARVLKSEPLQGKKTYEGKQAEWARGVKECGIYRGSNMTNWIVIGPGSGNSGLLSQKFIEEARRLGKILQVQLGEPMCVPIRGISPNDYLEGVKGAIKQVDGEDIHMLVVMLADDNKTRYDSLKKFLCVECPIPNQCVNLRTLAGKSKDGGENKNLGSIVLKIVLQMICKTGGALWKVNIPLKNTMIVGYDLYHDSTLKGKTVGACVSTTSNDFTQFYSQTRPHENPTQLGNNLTHFVRKALKQYYDSNDQTLPSRLILYRDGAGDGQIPYIKNTEVKLVRDACDAVTDKAAELSNKVQEKIKLAFIIVTKRVNMRILKQGSSLDNAINPQPGTVVDTTVTRPERMDFYLVPQFVNQGTVTPVSYNIIHDDTDLGPDKHQQLAFKLCHLYYNWQGTVRVPAPCQYAHKLAFLTAQSLHDDANGCLRDKLFFL	no binding	no binding
SLFL-3 (C35E7.8, endogenous) (protein, UniProt O61766 1-383) MDSGDFSPMQSNFSLGFMSFEDIPEDARTTEMIDKIVFEEDKEYDHTQDSFRYGRVTTGVSYNLVTGKIPKTVFEQVKAKDDENDNVEFEMEHLEDKETAHKTQTFDELYESQMPKYFDYQSNFSDVNGIWTLLFDQNHYEKMSTFELQAAICAALNSKHFMMICVGIDAFNAVTGVEMSAKDRVVFRMALTRAVAGEFQPPLVKVAPKQLTGVSPMKRDISEVTSSIDVLFVPVIGVTDEVENNRFLIVVRVKEISDKVYQISSGRIYNEQEGRVVEMSDMNEAFHKLIVEKSISDIQTRRGSMFMLEPEPFLEDSAVIFTESNEIPSENHEISRVHVKNCTERSLSQSLLNLLDIQNIGWIFFGTALSFCIYNNAIKPLVK	binds	–
TOFU-1 (endogenous) (protein, UniProt O17608 1-373) MAALFEENDSYSDSENEEDFSGFLSEIEENENEDEFENDDEFEDDDELENVDELEDDELSSEEVDIPSENEVIVELHDGQAEVEESLLDALLGKALAGDQMNSRIEGLFEDLDSSVEPDIIDRSELEDVDSGISVGAVSSSSAETQASDAKCKNKDAFDMSSLKKYMQYITEEEHAVSVEDIPDFASKKNVYGTSFNVRNGIMSRPPRFEFARHDQRWIDSCVSMAYEKDKTLKELITLGKLTTTVKAGAKIEFRTKFTDVHIRSADEINLMETHDIQQIIRDALNSKRLAVVLFGIGKDGKVTGCHMGPGQQDNLRLALDTAVQTEFAPPIENILDVVDMNFVPVEEMDETFLIVIRVKQLRNQVYRLESSV	binds	binds
